The list does not hold the whole screen: it gathers tests that were run many times, whatever their T/C, doses with no T/C, and many T/C values between a quarter and a half above the control. Further doses and runs are listed elsewhere. T/C: endpoint of the treated group in % of that of the vehicle group. Some doses have a count of surviving animals in place of a T/C: the source holds a T/C of zero for them, seemingly a mark for toxic or unscored doses. Some survivor counts are full or nearly so, which does not show that the dose was tolerated: the source hardly ever lists a survival T/C far under the control, and the zero likely stands for such cases as well. Counts of survivors are from the toxicity check (mostly the fifth day) where no day follows; animals may have died later. Schedule codes are those of the source, read here as Q, the interval in days (D) or hours (H), X, the number of doses. Signs of the kind (2×) say how often a value occurs here. Some entries were tested several times; the values are given in rising order. For survival time, this PubChem deposit counts one and a half times the control or more as active, and values a quarter to a half above the control carry no call in these data; other NCI protocols may use other cut-offs. Some T/C values carry the count of animals alive at the toxicity check (mostly the fifth day); where none is given, no animal had died by that day.
System: P388 leukemia ip, CD2F1 mice, survival T/C
Experiment: NCI In Vivo Anticancer Drug Screen. Data for tumor model P388 Leukemia (intraperitoneal) in CD2F1 (CDF1) mice
Conditions: T/C endpoint: median survival time, higher T/C = longer survival
[1] = dose: 200.0 mg/kg/injection, schedule: Q01DX005 (ip), vehicle: saline with Tween-80
[2] = dose: 240.0 mg/kg/injection, schedule: Q01DX005 (ip), vehicle: Klucel (hydroxypropylcellulose) (HPC)
[3] = dose: 200.0 mg/kg/injection, schedule: Q01DX009 (ip), vehicle: saline with Tween-80

NC(=O)Nc1ccc(Cl)cc1[N+](=O)[O-]
survivor count (dose: 150.0 mg/kg/injection, schedule: Q01DX009 (ip), vehicle: Klucel (hydroxypropylcellulose) (HPC)): 0 of 6
survivor count (dose: 300.0 mg/kg/injection, schedule: Q01DX009 (ip), vehicle: Klucel (hydroxypropylcellulose) (HPC)): 0 of 6

COC(=O)c1cc2cc(OC)c(OC)cc2c2ccccc12
survivor count [1]: 5 of 5

CCN(CC)CCOC(=O)c1ccc(NC(=S)Nc2ccccc2)cc1
survivor count [1]: 3 of 5

CCCN(CCC)CN1C(=O)c2ccccc2C1=O
T/C (dose: 200.0 mg/kg/injection, schedule: Q01DX005 (ip), vehicle: Klucel (hydroxypropylcellulose) (HPC)): 135 % of control

COC(=O)C1CC(C(=O)OC)c2nc3ccccc3nc21 (configuration not stated)
survivor count [2]: 0 of 6

Nc1ncnc2c1cnn2C1OC(CO)C(O)C1O (configuration not stated)
T/C (dose: 12.5 mg/kg/injection, schedule: Q01DX009 (ip), vehicle: saline): 127 % of control
T/C (dose: 25.0 mg/kg/injection, schedule: Q01DX009 (ip), vehicle: saline): 133 % of control
T/C (dose: 50.0 mg/kg/injection, schedule: Q01DX009 (ip), vehicle: saline): 129 % of control [5 of 6 alive]

CCCCN=C1Nc2nc(=NCCCC)nc3c(Br)cc(Br)c(n23)N1
survivor count (dose: 7.5 mg/kg/injection, schedule: Q01DX005 (ip), vehicle: Klucel (hydroxypropylcellulose) (HPC)): 6 of 6
survivor count (dose: 15.0 mg/kg/injection, schedule: Q01DX005 (ip), vehicle: Klucel (hydroxypropylcellulose) (HPC)): 6 of 6 (2×)
survivor count (dose: 30.0 mg/kg/injection, schedule: Q01DX005 (ip), vehicle: Klucel (hydroxypropylcellulose) (HPC)): 6 of 6
survivor count (dose: 120.0 mg/kg/injection, schedule: Q01DX005 (ip), vehicle: Klucel (hydroxypropylcellulose) (HPC)): 6 of 6
survivor count [2]: 0 of 6

CC([NH-])C(C)[NH-].[Cl][Pt+2][Cl] (configuration not stated)
T/C (dose: 3.12 mg/kg/injection, schedule: Q01DX001 (ip), vehicle: Klucel (hydroxypropylcellulose) (HPC)): 127 % of control
T/C (dose: 6.25 mg/kg/injection, schedule: Q01DX001 (ip), vehicle: Klucel (hydroxypropylcellulose) (HPC)): 130 % of control (2×)
survivor count (dose: 50.0 mg/kg/injection, schedule: Q01DX001 (ip), vehicle: Klucel (hydroxypropylcellulose) (HPC)): 4 of 6 and 5 of 6
survivor count (dose: 100.0 mg/kg/injection, schedule: Q01DX001 (ip), vehicle: Klucel (hydroxypropylcellulose) (HPC)): 0 of 6 and 3 of 6
survivor count (dose: 200.0 mg/kg/injection, schedule: Q01DX001 (ip), vehicle: Klucel (hydroxypropylcellulose) (HPC)): 0 of 6
survivor count (dose: 400.0 mg/kg/injection, schedule: Q01DX001 (ip), vehicle: Klucel (hydroxypropylcellulose) (HPC)): 0 of 6

CC(NNC(=S)N(C)C1CCCCC1)c1nccc2ccccc12 (configuration not stated)
T/C (dose: 120.5 mg/kg/injection, schedule: Q01DX001 (ip), vehicle: Klucel (hydroxypropylcellulose) (HPC)): 142 % of control [5 of 6 alive]
survivor count (dose: 241.0 mg/kg/injection, schedule: Q01DX001 (ip), vehicle: Klucel (hydroxypropylcellulose) (HPC)): 1 of 6

CC1CCCC(C2CC3CCCCC3C(N)[N-]2)[N-]1.CC1CCCC(C2CC3CCCCC3C(N)[N-]2)[N-]1.O=[N+]([O-])O.[Cu+2] (configuration not stated)
survivor count (dose: 400.0 mg/kg/injection, schedule: Q04DX002 (ip), vehicle: suspension in saline): 0 of 6

CC(=O)Nc1c(Cl)c(Cl)c2c(c1Cl)Cc1cc(Br)ccc1-2
survivor count (dose: 200.0 mg/kg/injection, schedule: Q04DX003 (ip), vehicle: saline with Tween-80): 5 of 6
survivor count (dose: 400.0 mg/kg/injection, schedule: Q04DX003 (ip), vehicle: saline with Tween-80): 5 of 6

COc1cc2cc(c1Cl)N(C)C(=O)/C=C/C1(C)OC1C(C)C1CC(O)(NC(=O)O1)C(OC)/C=C/C=C(\C)C2OC (configuration not stated)
T/C (dose: 8.0 micrograms/kg/injection, schedule: Q01DX009 (ip), vehicle: distilled water + alcohol): 136 % of control
T/C (dose: 32.0 micrograms/kg/injection, schedule: Q01DX009 (ip), vehicle: distilled water + alcohol): 128 and 132 % of control

O=C1CC(c2ccc(OCN(CCCl)CCCl)cc2)CC(=O)C1CN(CCCl)CCCl (configuration not stated)
T/C (dose: 1.0 mg/kg/injection, schedule: Q01DX009 (ip), vehicle: Klucel (hydroxypropylcellulose) (HPC)): 135 % of control
T/C (dose: 4.0 mg/kg/injection, schedule: Q01DX009 (ip), vehicle: Klucel (hydroxypropylcellulose) (HPC)): 137 % of control
T/C (dose: 8.0 mg/kg/injection, schedule: Q01DX009 (ip), vehicle: Klucel (hydroxypropylcellulose) (HPC)): 137 % of control

CN(C)C1CCc2ccccc2C1OC(=O)/C=C/c1ccccc1 (configuration not stated)
survivor count [3]: 2 of 6

CCCc1cc(-c2cccc3ccccc23)c(CCC)c2c1-c1cccc3cccc-2c13
survivor count [3]: 6 of 6

Reference: PubChem BioAssay AID330 (DTP/NCI, 2004)
